Data as given in PubChem BioAssay AID1159584 (Peter MacCallum Cancer Centre, 2016).
Aim: 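Genes whose loss is lethal only together with E-cadherin loss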 (primary screen). System: human MCF10A breast epithelial cells, parental and CDH1-null. Reagent: siRNA against human genes. Measured: 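Cell viability by CellTiter-Glo ATP luminescence, each line scaled to the mean of mock wells across plates, then CDH1-null over parental ratio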. Reading the numbers: CDH1-null / parental viability ratio: higher = CDH1-null cells survive relatively better than parental; CDH1-null viability vs mock: higher = more viable CDH1-null cells.
The deposit covers about 18,000 reagents; below is a random part of them. Not all columns of the deposit are shown. No sequences are given here. The record does not give: the amount of reagent, the time to read-out.

The opening 5 records as a preview:
| gene knocked down | CDH1-null / parental viability ratio | CDH1-null viability vs mock (fraction of mock) |
| --- | --- | --- |
| FN3K (GeneID 64122) | 0.89 | 0.84 |
| OFCC1 (GeneID 266553) | 1.06 | 0.36 |
| CD59 (GeneID 966) | 1.4 | 1.08 |
| DIMT1 (GeneID 27292) | 0.92 | 0.88 |
| IFI44 (GeneID 10561) | 0.82 | 0.8 |

Main list, from the first entry:
| gene knocked down | CDH1-null / parental viability ratio | CDH1-null viability vs mock (fraction of mock) |
| --- | --- | --- |
| FN3K (GeneID 64122) | 0.89 | 0.84 |
| OFCC1 (GeneID 266553) | 1.06 | 0.36 |
| CD59 (GeneID 966) | 1.4 | 1.08 |
| DIMT1 (GeneID 27292) | 0.92 | 0.88 |
| IFI44 (GeneID 10561) | 0.82 | 0.8 |
| SULT1C2 (GeneID 6819) | 0.93 | 0.5 |
| PSMB10 (GeneID 5699) | 1.44 | 0.56 |
| P2RX6 (GeneID 9127) | 1.29 | 0.98 |
| C1orf116 (GeneID 79098) | 1.05 | 0.88 |
| CHAT (GeneID 1103) | 0.92 | 0.79 |
| ZNF804A (GeneID 91752) | 1 | 1.05 |
| CIITA (GeneID 4261) | 0.96 | 0.93 |
| TBCC (GeneID 6903) | 0.89 | 0.68 |
| VASP (GeneID 7408) | 1.1 | 1.02 |
| ST3GAL1 (GeneID 6482) | 0.73 | 0.67 |
| FAM81A (GeneID 145773) | 1 | 0.86 |
| KCNK3 (GeneID 3777) | 1.21 | 0.99 |
| LACTB (GeneID 114294) | 1.03 | 1.01 |
| COQ2 (GeneID 27235) | 1.1 | 0.85 |
| CDSN (GeneID 1041) | 0.91 | 0.74 |
| BORA (GeneID 79866) | 1.01 | 0.76 |
| SKIC3 (GeneID 9652) | 1.42 | 0.74 |
| SLC4A11 (GeneID 83959) | 0.96 | 0.94 |
| TSLIG2 (GeneID 79074) | 0.85 | 1.09 |
| ITGB7 (GeneID 3695) | 0.98 | 0.62 |
| CCSAP (GeneID 126731) | 1.2 | 0.66 |
| CPLX4 (GeneID 339302) | 1.22 | 1.12 |
| SEMA4C (GeneID 54910) | 0.94 | 0.95 |
| WFDC2 (GeneID 10406) | 0.88 | 0.68 |
| CDC42SE1 (GeneID 56882) | 0.94 | 0.78 |
| PPP1CA (GeneID 5499) | 1.43 | 0.66 |
| MRPS24 (GeneID 64951) | 1.38 | 0.99 |
| TAS2R13 (GeneID 50838) | 1.35 | 1.09 |
| DOK5 (GeneID 55816) | 1.27 | 1.02 |
| PLEKHA7 (GeneID 144100) | 1.05 | 0.82 |
| CTSE (GeneID 1510) | 1.17 | 0.62 |
| FN1 (GeneID 2335) | 0.84 | 0.84 |
| EEF2K (GeneID 29904) | 0.79 | 0.64 |
| PRKCQ (GeneID 5588) | 0.79 | 0.73 |
| HSD3B7 (GeneID 80270) | 0.91 | 0.49 |
| ARVCF (GeneID 421) | 1.06 | 0.74 |
| PALS2 (GeneID 51678) | 0.88 | 0.88 |
| CMKLR1 (GeneID 1240) | 1.41 | 0.9 |
| TMEM215 (GeneID 401498) | 0.76 | 0.62 |
| LRG1 (GeneID 116844) | 0.98 | 0.61 |
| LCE3D (GeneID 84648) | 1.27 | 0.76 |
| SREBF2 (GeneID 6721) | 1.02 | 0.9 |
| GNA11 (GeneID 2767) | 0.89 | 0.82 |
| FLT1 (GeneID 2321) | 0.98 | 0.86 |
| CCDC127 (GeneID 133957) | 0.81 | 0.9 |
| RPS24 (GeneID 6229) | 1.65 | 0.56 |
| CFL1 (GeneID 1072) | 0.64 | 0.34 |
| CDCA4 (GeneID 55038) | 1.12 | 0.82 |
| OMP (GeneID 4975) | 1.34 | 1.1 |
| MTMR3 (GeneID 8897) | 0.97 | 0.7 |
| CNOT11 (GeneID 55571) | 1.12 | 0.9 |
| OMG (GeneID 4974) | 1.34 | 0.86 |
| TMCC2 (GeneID 9911) | 0.86 | 0.55 |
| CD28 (GeneID 940) | 1.03 | 0.68 |
| REG1A (GeneID 5967) | 1.11 | 0.8 |
| KRT39 (GeneID 390792) | 1.01 | 0.79 |
| TMPPE (GeneID 643853) | 1.21 | 0.92 |
| SAG (GeneID 6295) | 1.1 | 0.8 |
| PUS7L (GeneID 83448) | 1.22 | 1.07 |
| PPP4C (GeneID 5531) | 1.37 | 0.82 |
| PDZD11 (GeneID 51248) | 1 | 0.38 |
| ZFP69B (GeneID 65243) | 1.06 | 0.57 |
| FAM162A (GeneID 26355) | 0.93 | 0.86 |
